The other results are listed elsewhere or left out.
Experiments:
Test in all cases: log2 fold change, soluble protein after heating vs DMSO (PISA); higher = thermal stabilisation; K562 cells, 10 uM, 30 min; active = over 0.2 and 3.5 SD of the protein, either way, in both replicates (recomputed)
[1] = compound: C#Cc1cccc(Nc2ncnc3cc(OCCOC)c(OCCOC)cc23)c1 [erlotinib]
Outline: (§1)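 Thermal stability values are relative to control samples and come from duplicates. They are expressed as log2 fold changes. For measurement, K562 cells (2×10^6 cells/mL) received 10 μM compound for 30 min, and aliquots were heated for 3 min over 48°C-58°C, pooled, and extracted at 4°C in PBS with 0.5% NP-40. Soluble protein, the supernatant after 21,000xg for 90 min, was quantified by TMTpro 16plex LC-MS/MS with equalised channel sums.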

The chains behind the UniProt entries cited, without tags or fusion partners. Where a name states a change or a piece, a line headed by the entry shows the natural chain unless it says otherwise.
UniProt Q86X76: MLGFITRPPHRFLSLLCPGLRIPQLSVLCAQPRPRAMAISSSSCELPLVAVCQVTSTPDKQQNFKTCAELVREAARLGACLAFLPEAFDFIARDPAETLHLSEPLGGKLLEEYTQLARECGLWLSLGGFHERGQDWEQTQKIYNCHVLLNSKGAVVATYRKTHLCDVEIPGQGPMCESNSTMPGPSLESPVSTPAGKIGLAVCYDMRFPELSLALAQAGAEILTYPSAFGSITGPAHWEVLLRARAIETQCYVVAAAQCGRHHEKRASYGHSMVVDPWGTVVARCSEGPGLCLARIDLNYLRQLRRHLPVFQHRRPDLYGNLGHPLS
UniProt O75323: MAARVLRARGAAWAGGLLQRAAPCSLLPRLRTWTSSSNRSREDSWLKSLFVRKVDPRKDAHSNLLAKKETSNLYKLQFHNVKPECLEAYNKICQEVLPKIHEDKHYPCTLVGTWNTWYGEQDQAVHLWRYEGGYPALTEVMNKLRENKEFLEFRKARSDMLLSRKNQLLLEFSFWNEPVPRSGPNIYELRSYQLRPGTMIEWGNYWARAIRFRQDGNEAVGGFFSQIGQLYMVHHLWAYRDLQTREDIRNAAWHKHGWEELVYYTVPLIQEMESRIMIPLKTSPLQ
UniProt Q8IXH7, whole entry, looked up: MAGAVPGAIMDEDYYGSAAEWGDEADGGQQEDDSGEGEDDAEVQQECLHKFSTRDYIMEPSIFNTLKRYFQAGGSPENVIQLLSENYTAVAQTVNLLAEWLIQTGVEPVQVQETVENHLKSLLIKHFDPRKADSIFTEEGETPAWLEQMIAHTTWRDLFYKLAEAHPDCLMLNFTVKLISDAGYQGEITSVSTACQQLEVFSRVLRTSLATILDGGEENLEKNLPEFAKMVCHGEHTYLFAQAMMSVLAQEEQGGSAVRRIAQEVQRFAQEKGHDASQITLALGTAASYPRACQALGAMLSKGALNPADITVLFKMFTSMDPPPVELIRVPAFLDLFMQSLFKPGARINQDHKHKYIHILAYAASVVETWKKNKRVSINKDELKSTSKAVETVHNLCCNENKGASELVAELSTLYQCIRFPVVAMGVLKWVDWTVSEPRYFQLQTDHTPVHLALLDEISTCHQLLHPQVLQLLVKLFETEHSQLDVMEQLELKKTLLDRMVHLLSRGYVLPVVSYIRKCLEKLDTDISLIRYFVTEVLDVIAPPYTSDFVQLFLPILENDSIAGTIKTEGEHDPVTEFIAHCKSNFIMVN
UniProt Q96TA1: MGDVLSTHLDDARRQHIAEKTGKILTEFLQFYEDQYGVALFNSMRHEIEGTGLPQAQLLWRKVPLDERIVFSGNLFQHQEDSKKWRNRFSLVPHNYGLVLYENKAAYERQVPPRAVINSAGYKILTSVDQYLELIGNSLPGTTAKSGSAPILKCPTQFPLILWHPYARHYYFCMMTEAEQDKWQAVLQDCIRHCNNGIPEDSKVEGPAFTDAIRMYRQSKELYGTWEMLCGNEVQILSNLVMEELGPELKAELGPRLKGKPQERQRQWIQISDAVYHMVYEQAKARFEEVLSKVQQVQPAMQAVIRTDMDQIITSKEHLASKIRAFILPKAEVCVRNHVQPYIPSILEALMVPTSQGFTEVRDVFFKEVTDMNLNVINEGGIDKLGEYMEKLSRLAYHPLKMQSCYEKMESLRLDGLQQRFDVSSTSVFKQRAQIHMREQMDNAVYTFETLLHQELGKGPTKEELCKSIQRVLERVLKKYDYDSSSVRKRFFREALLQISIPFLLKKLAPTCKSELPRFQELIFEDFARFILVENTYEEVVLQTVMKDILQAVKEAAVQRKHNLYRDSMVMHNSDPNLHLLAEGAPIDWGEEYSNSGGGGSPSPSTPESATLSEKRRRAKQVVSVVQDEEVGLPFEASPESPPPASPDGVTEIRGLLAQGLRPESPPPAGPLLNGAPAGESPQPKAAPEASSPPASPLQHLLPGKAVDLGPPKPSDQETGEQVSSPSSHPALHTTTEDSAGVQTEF
UniProt P25208: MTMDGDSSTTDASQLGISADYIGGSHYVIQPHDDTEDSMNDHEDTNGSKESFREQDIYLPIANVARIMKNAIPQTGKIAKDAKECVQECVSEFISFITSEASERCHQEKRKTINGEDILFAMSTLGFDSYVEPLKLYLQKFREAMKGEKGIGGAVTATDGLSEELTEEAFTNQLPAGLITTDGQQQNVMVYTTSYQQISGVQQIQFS
UniProt P61916: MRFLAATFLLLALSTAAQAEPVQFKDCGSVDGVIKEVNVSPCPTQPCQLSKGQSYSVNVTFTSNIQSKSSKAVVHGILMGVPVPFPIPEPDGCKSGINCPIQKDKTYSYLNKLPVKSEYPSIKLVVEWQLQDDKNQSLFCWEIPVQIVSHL
UniProt P49116: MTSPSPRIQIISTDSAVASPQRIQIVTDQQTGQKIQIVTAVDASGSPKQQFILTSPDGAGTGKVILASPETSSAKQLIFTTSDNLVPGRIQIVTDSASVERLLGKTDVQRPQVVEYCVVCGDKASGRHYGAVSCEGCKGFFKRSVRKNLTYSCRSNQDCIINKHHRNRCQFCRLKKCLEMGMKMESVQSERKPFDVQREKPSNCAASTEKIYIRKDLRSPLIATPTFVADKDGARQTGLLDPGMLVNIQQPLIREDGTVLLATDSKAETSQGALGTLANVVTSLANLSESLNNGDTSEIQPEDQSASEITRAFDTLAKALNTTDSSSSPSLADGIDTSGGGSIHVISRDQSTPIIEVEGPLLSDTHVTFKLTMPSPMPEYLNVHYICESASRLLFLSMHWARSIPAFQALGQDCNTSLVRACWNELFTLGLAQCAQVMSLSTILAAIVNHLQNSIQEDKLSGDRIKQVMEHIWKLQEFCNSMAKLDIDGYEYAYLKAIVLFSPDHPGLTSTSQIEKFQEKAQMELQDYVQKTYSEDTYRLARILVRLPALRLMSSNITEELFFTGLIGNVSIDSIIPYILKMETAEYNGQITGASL
UniProt Q9NX02: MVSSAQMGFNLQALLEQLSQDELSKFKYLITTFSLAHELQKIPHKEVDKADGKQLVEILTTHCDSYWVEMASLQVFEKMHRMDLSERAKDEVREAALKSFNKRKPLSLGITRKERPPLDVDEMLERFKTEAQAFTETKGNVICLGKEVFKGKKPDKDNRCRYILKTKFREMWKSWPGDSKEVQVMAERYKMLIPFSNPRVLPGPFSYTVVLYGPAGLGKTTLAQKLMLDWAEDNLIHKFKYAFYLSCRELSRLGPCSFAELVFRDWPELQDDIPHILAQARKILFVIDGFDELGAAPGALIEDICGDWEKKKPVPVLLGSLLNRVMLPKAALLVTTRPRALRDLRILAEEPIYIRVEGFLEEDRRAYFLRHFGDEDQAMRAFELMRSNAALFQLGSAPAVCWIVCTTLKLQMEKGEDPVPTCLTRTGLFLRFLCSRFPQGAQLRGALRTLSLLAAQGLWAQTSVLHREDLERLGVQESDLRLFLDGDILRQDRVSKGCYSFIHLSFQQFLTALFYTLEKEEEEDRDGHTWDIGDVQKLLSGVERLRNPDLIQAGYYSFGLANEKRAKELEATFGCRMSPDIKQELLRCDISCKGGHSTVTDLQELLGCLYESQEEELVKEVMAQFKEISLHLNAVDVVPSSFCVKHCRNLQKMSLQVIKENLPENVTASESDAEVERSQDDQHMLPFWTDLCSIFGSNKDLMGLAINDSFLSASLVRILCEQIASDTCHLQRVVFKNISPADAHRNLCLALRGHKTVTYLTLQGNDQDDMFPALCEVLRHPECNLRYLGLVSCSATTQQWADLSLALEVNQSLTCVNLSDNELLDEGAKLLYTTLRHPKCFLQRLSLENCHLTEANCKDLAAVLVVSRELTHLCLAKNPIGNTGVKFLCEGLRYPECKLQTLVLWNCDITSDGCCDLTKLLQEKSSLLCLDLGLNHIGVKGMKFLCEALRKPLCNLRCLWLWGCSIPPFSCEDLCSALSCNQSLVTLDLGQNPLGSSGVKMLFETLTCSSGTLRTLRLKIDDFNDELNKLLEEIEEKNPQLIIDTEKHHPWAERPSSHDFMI
UniProt Q9H8H0: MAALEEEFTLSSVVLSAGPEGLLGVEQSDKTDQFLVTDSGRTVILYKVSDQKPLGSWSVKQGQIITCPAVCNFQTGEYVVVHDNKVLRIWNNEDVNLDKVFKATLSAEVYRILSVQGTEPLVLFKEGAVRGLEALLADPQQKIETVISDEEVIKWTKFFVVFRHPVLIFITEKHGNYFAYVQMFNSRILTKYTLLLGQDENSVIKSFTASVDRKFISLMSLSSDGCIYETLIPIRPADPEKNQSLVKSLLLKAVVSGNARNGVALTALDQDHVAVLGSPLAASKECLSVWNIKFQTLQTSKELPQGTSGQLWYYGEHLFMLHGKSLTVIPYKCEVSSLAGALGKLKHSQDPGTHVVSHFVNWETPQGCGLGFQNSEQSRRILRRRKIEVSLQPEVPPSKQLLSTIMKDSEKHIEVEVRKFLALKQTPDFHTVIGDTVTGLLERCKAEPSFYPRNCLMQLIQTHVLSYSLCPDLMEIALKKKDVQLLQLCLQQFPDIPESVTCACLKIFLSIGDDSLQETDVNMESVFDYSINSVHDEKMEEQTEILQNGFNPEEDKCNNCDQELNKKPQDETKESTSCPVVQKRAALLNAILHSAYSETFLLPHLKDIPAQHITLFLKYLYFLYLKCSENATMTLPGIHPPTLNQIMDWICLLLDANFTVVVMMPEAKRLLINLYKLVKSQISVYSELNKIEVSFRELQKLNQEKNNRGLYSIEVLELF
UniProt P23511, whole entry, looked up: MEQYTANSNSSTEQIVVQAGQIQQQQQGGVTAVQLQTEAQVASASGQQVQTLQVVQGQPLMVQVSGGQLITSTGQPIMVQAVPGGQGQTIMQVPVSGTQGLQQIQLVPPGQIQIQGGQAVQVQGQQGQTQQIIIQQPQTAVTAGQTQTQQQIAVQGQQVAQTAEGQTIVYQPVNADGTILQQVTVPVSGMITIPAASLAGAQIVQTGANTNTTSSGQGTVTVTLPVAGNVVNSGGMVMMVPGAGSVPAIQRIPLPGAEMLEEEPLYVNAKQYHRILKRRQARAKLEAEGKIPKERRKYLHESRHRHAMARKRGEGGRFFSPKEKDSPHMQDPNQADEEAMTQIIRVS
UniProt P40261: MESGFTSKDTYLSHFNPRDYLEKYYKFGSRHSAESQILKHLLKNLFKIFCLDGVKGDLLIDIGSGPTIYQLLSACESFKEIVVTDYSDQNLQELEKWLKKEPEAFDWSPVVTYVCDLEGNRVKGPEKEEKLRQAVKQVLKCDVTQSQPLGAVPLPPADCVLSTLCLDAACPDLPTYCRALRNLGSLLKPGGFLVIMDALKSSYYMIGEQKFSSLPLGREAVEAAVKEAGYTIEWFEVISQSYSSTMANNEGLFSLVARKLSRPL
UniProt Q13423: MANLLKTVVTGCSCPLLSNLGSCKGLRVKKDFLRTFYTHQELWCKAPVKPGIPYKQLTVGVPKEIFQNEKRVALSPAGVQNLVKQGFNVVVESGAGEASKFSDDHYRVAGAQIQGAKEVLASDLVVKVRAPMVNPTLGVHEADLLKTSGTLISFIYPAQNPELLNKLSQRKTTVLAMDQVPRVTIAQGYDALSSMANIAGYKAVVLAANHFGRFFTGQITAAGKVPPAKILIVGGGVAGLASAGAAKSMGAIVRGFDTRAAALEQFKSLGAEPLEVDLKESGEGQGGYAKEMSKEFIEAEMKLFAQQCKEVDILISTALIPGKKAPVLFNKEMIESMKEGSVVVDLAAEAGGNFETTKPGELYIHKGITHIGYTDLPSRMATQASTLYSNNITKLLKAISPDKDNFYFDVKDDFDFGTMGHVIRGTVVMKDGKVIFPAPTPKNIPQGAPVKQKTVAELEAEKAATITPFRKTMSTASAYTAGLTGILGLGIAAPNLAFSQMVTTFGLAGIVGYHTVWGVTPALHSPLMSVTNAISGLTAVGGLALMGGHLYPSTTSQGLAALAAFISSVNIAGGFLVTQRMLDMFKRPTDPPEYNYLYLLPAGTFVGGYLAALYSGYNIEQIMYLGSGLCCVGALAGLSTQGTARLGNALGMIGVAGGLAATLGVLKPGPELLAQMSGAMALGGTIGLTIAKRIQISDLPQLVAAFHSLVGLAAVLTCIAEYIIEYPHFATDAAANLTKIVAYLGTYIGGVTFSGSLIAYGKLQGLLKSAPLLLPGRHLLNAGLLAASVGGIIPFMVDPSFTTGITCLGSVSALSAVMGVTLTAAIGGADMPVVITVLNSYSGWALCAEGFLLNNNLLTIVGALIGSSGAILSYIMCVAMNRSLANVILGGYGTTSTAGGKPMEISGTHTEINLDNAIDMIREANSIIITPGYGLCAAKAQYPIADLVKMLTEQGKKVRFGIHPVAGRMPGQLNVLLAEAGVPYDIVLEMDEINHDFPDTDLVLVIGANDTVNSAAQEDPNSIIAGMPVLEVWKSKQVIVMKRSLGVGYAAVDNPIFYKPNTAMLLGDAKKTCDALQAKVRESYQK
UniProt O75414: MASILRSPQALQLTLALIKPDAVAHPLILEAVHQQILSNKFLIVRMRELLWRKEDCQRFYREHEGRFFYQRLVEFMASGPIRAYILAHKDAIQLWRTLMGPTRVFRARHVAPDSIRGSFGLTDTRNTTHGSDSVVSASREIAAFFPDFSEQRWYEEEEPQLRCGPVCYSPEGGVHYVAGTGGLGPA

[2] = compound: C/C(=N\NC(=O)C1=CC(=CC=C1)S(=O)(=O)N2CCOCC2)/C3=C(C=CC(=C3)Cl)O
Outline: as §1

[3] = compound: C1=CC(=C(C=C1Cl)C2=NC3=NC=CN=C3C(=N2)NC4=CC=NC=C4)F
Outline: as §1

[4] = compound: C1=CC(=CC=C1C2=NC3=C(N2)C=C(C=C3)C(=O)N)OC4=CC=C(C=C4)Cl
Outline: as §1

[5] = compound: C1=CC2=C(C=CC(=C2)/C=C\3/C(=O)NC(=NCC4=CC=CS4)S3)N=C1
Outline: as §1

[6] = compound: C1=CC2=NC=CN=C2C=C1/C=C/3\C(=O)NC(=O)S3
Outline: as §1

[7] = compound: C1=CC=C(C=C1)C2=NC(=C(N2)C3=CC=NC=C3)C4=CC(=C(C=C4)Cl)O
Outline: as §1

[8] = compound: C1=CC=C2C(=C1)C3=NNC4=CC=CC(=C43)C2=O
Outline: as §1

[9] = compound: C1CCN(C1)C(=O)NC2=CC=CC(=C2)NC3=NC=C(C(=N3)NCCC4=CN=CN4)Br
Outline: as §1

[10] = compound: C1CN(CCC1(CC2=CC=C(C=C2)Cl)N)C3=NC=NC4=C3C=CN4
Outline: as §1

Measured: log2 fold change

NIT1 (UniProt Q86X76)
inactive: [1] 0.008 | [2] -0.004 | [3] 0 | [4] 0.057 | [5] 0.03 | [6] 0.023 | [7] 0.014 | [8] -0.02 | [9] 0.014 | [10] 0.036

NKAP (UniProt Q8N5F7)
inactive: [1] 0.029 | [2] 0.023 | [3] -0.041 | [4] 0.041 | [5] -0.189 | [6] -0.047 | [7] -0.085 | [8] -0.051 | [9] -0.064 | [10] -0.007

NOLC1 isoform 2 (UniProt Q14978)
inactive: [1] 0.022 | [2] 0.036 | [3] -0.051 | [4] -0.005 | [5] -0.11 | [6] 0.024 | [7] -0.034 | [8] -0.171 | [9] -0.177 | [10] 0

NIPSNAP2 (UniProt O75323)
inactive: [1] 0.024 | [2] 0.065 | [3] 0.076 | [4] 0.106 | [5] 0.044 | [6] -0.079 | [7] 0.071 | [8] 0.041 | [9] 0.01 | [10] 0.007

NELFCD (UniProt Q8IXH7)
inactive: [1] 0.096 | [2] 0.034 | [3] 0.121 | [4] -0.154 | [5] 0.056 | [6] 0.031 | [8] 0.06

NIPBL (UniProt Q6KC79)
inactive: [1] 0.207 | [2] -0.061 | [3] -0.088 | [4] -0.065 | [5] 0.138 | [6] 0.033 | [8] -0.057 | [9] -0.154 | [10] -0.091

3 records drawn at random from the list so far:
NOLC1 isoform 2 (UniProt Q14978)
inactive: [1] 0.022 | [2] 0.036 | [3] -0.051 | [4] -0.005 | [5] -0.11 | [6] 0.024 | [7] -0.034 | [8] -0.171 | [9] -0.177 | [10] 0

NELFCD (UniProt Q8IXH7)
inactive: [1] 0.096 | [2] 0.034 | [3] 0.121 | [4] -0.154 | [5] 0.056 | [6] 0.031 | [8] 0.06

NIT1 (UniProt Q86X76)
inactive: [1] 0.008 | [2] -0.004 | [3] 0 | [4] 0.057 | [5] 0.03 | [6] 0.023 | [7] 0.014 | [8] -0.02 | [9] 0.014 | [10] 0.036

The results go on.

NIBAN2 (UniProt Q96TA1)
inactive: [1] 0.042 | [2] 0.016 | [3] 0.027 | [4] -0.01 | [5] 0.018 | [6] 0.016 | [7] 0.009 | [8] -0.04 | [9] 0.003 | [10] 0.021

NFYB (UniProt P25208)
inactive: [1] 0.092 | [2] -0.102 | [4] -0.153 | [5] -0.047 | [6] 0.064 | [7] -0.036 | [8] -0.045 | [9] 0.01 | [10] -0.069

NPC2 (UniProt P61916)
inactive: [1] 0.007 | [2] -0.074 | [3] 0.052 | [4] 0.008 | [5] -0.018 | [6] 0.089 | [7] 0.085 | [8] 0.073 | [9] 0.004 | [10] 0.016

NGRN (UniProt Q9NPE2)
inactive: [1] -0.008 | [2] -0.089 | [3] -0.046 | [4] 0.033 | [5] 0.025 | [6] -0.005 | [8] -0.141 | [9] -0.024 | [10] -0.068

NRM (UniProt Q8IXM6)
inactive: [1] 0.037 | [2] 0.004 | [3] 0.01 | [4] 0.026 | [5] 0.015 | [6] 0.083 | [8] 0.038 | [9] -0.252 | [10] 0.01

NR2C2 isoform 2 (UniProt P49116)
inactive: [1] -0.001 | [2] -0.067 | [3] -0.011 | [4] 0.006 | [5] 0.019 | [6] -0.039 | [7] -0.003 | [8] -0.091 | [9] 0.074 | [10] 0.007

NIPA1 (UniProt Q7RTP0)
inactive: [1] 0.084 | [2] 0.114 | [4] -0.001 | [5] -0.006 | [6] -0.004 | [7] -0.008 | [8] -0.076 | [9] -0.005 | [10] 0.191

NONO (UniProt Q15233)
inactive: [1] 0.063 | [2] 0.022 | [3] -0.29 | [4] 0.049 | [5] -0.041 | [6] 0.103 | [7] -0.003 | [8] -0.05 | [9] -0.074 | [10] -0.254

NLRP2 (UniProt Q9NX02)
inactive: [1] 0.039 | [2] 0.016 | [3] -0.17 | [4] -0.03 | [5] 0.041 | [6] 0.031 | [7] 0.037 | [8] 0.029 | [9] -0.04 | [10] -0.113

NOL11 (UniProt Q9H8H0)
inactive: [1] -0.019 | [2] -0.065 | [3] 0.015 | [4] -0.007 | [5] -0.038 | [6] 0.042 | [7] 0.027 | [8] -0.005 | [9] -0.014 | [10] 0.079

NPTN (UniProt Q9Y639)
inactive: [1] -0.013 | [2] 0.057 | [3] 0.036 | [4] -0.027 | [5] -0.105 | [6] 0.008 | [7] 0.036 | [8] 0.033 | [9] -0.017 | [10] 0.04

NFKBIE (UniProt O00221)
inactive: [1] 0.023 | [2] 0.052 | [3] 0.057 | [4] 0.026 | [5] -0.055 | [7] -0.002 | [8] 0.006 | [9] -0.012 | [10] 0.03

NFYA (UniProt P23511)
inactive: [1] 0.109 | [2] -0.056 | [3] -0.33 | [4] 0.011 | [5] 0.032 | [6] 0.003 | [7] -0.143 | [8] -0.031 | [9] -0.081 | [10] -0.005

NNMT (UniProt P40261)
inactive: [1] 0.037 | [2] 0.062 | [3] 0.123 | [4] 0.021 | [5] 0.074 | [6] 0 | [8] 0.028 | [9] 0.045 | [10] 0.043

NFAT5 isoform 5 (UniProt O94916)
inactive: [1] 0.001 | [2] 0.214 | [3] -0.12 | [4] 0.021 | [5] 0.15 | [6] 0.003 | [8] -0.129 | [9] 0.119 | [10] -0.01

NNT (UniProt Q13423)
inactive: [1] -0.008 | [2] 0.051 | [3] 0.089 | [4] -0.012 | [5] 0.044 | [6] 0.01 | [7] 0.005 | [8] -0.005 | [9] -0.001 | [10] 0.043

NIPSNAP1 (UniProt Q9BPW8)
inactive: [1] 0.032 | [2] 0.075 | [3] -0.005 | [4] 0.114 | [5] 0.155 | [6] -0.084 | [7] 0.071 | [8] 0.088 | [9] 0.005 | [10] 0.081

NME6 (UniProt O75414)
inactive: [1] 0.09 | [2] -0.071 | [3] 0.031 | [4] 0.037 | [5] 0.136 | [6] 0.074 | [7] 0.04 | [8] 0.034 | [9] -0.02 | [10] -0.073

NOMO1 (UniProt Q15155)
inactive: [1] -0.191 | [2] -0.186 | [3] 0.006 | [4] 0.024 | [5] -0.192 | [6] -0.048 | [7] -0.155 | [8] 0.11 | [9] -0.119 | [10] 0.103

NIFK (UniProt Q9BYG3)
inactive: [1] -0.067 | [2] -0.152 | [3] -0.436 | [4] -0.074 | [5] 0.042 | [6] 0.023 | [7] -0.002 | [8] 0.101 | [9] 0.122 | [10] -0.06

NPRL3 (UniProt Q12980)
inactive: [1] -0.115 | [4] -0.177

NR2C1 (UniProt P13056)
inactive: [2] 0.033 | [3] -0.023 | [5] -0.038 | [6] 0.197 | [8] 0.017

NOTCH2 (UniProt Q04721)
inactive: [1] 0.262 | [2] -0.106 | [4] 0.495 | [5] 0.17 | [6] -0.179 | [8] -0.176 | [9] 0.092 | [10] -0.076

NFE2L1 (UniProt Q14494)
inactive: [1] -0.161 | [3] -0.263 | [4] 0 | [9] -0.057 | [10] 0.281

NOC3L (UniProt Q8WTT2)
inactive: [2] -0.435 | [3] -0.198 | [5] 0.195 | [6] 0.066 | [8] -0.218
